Test results: the supplement of paper PMC3334620
In all, about 33,000 sequences were measured (“E-score (-0.5 to 0.5)”: median about -0.0014, highest 2% from about 0.25 on). Some of the results follow.

The sequences below were run against T1, Cad1 (UniProt P24813) (assay: PBM E-score (8-mer binding enrichment) (E-score (-0.5 to 0.5)); higher = stronger / more preferred TF binding). Details: protein concentration: 100 nM; construct: GST-full length.
T1 sequence: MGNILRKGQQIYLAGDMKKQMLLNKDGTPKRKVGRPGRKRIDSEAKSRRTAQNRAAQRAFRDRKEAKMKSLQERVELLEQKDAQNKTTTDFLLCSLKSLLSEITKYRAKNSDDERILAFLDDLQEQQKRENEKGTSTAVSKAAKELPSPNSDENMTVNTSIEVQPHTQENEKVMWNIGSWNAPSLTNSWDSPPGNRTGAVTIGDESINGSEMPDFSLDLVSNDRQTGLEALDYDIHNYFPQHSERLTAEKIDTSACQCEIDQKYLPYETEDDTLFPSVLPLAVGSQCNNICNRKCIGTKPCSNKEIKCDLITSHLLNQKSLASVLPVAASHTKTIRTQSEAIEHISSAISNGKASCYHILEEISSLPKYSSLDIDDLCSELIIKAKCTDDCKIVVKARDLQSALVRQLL
Description: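 Universal 'all 10-mer' protein binding microarrays (Agilent AMADID 015681) probed with GST-tagged S. cerevisiae TFs (full-length or DBD) made by in vitro transcription/translation (PURExpress), about 100-200 nM. Bound TF was detected with fluorescent anti-GST. Each ungapped 8-mer (which stands for itself and its reverse complement) is scored by the PBM enrichment score (E-score), a modified Wilcoxon-Mann-Whitney statistic from -0.5 to +0.5, computed with the Universal PBM Analysis Suite. Scale: above 0.35 generally sequence-specific binding.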
In the case of GACCGACC, the “PBM E-score” value is reported as 0.0236.
For CAAAGTGG, the “PBM E-score” value was -0.242.
For AGTACGTA, the “PBM E-score” value was 0.115.
With ACGAAGCG the “PBM E-score” value was -0.00828.
CACCACTG was tested, and the “PBM E-score” value was -0.14.
With ATCGACGA the “PBM E-score” value was 0.0912.
CCGACTAC was tested, and the “PBM E-score” value was -0.0199.
In the case of CAGGTCCA, the “PBM E-score” value is reported as 2e-05.
With CTTGCGCC the “PBM E-score” value was -0.0483.
In the case of GGCTGACA, the “PBM E-score” value is reported as 0.313.
In the case of CATTCGGC, the “PBM E-score” value is reported as -0.0238.
In the case of AGCGGTCA, the “PBM E-score” value is reported as -0.154.
In the case of TCTATTCA, the “PBM E-score” value is reported as 0.195.
With GCGAATCC the “PBM E-score” value was -0.0492.
For ACCCGACT, the “PBM E-score” value was 0.00464.
In the case of AAGCCGAG, the “PBM E-score” value is reported as 0.114.
In the case of ACGAGAGG, the “PBM E-score” value is reported as -0.183.
For AATACAGA, the “PBM E-score” value was -0.00165.
In the case of TACTTCTA, the “PBM E-score” value is reported as -0.0389.
With CGTACATA the “PBM E-score” value was 0.158.
With CTCCCTTC the “PBM E-score” value was -0.383.
CTCTTGAC was tested, and the “PBM E-score” value was -0.037.
In the case of GTTTTGTA, the “PBM E-score” value is reported as 0.098.
For GACGCGAC, the “PBM E-score” value was -0.102.
AGCAAGAT was tested, and the “PBM E-score” value was 0.069.
AACGGGTC was tested, and the “PBM E-score” value was -0.242.
For AGTGGATG, the “PBM E-score” value was 0.0597.
In the case of AACAAGAA, the “PBM E-score” value is reported as 0.124.
TACCTGAA was tested, and the “PBM E-score” value was 0.16.
In the case of ACAGACCC, the “PBM E-score” value is reported as -0.211.
For AACATTCG, the “PBM E-score” value was -0.0386.
AATTACCG was tested, and the “PBM E-score” value was 0.0902.
For GTTCAGAA, the “PBM E-score” value was 0.109.
With AAAGCCCG the “PBM E-score” value was -0.126.
In the case of CGGTGCCA, the “PBM E-score” value is reported as -0.121.
AACTATCA was tested, and the “PBM E-score” value was 0.141.
With CTGCGCGC the “PBM E-score” value was 0.302.
With GTATTACA the “PBM E-score” value was 0.234.
In the case of AGATGGCA, the “PBM E-score” value is reported as 0.0766.
In the case of ACCTGAGC, the “PBM E-score” value is reported as -0.092.
With ACTCAGAT the “PBM E-score” value was 0.107.
ACGATTAA was tested, and the “PBM E-score” value was 0.0443.
TCCGCGCA was tested, and the “PBM E-score” value was 0.134.
AAAGGTGG was tested, and the “PBM E-score” value was 0.0562.
With ACGGCCTA the “PBM E-score” value was 0.0633.
In the case of GCTTCTCC, the “PBM E-score” value is reported as -0.27.
ACAGTGAC was tested, and the “PBM E-score” value was 0.0541.
In the case of CATCGGCG, the “PBM E-score” value is reported as 0.0426.
CGTCAATA was tested, and the “PBM E-score” value was 0.00634.
ATGCGGAC was tested, and the “PBM E-score” value was -0.0449.
For CTGGTACC, the “PBM E-score” value was -0.227.
With TTCGCCAA the “PBM E-score” value was -0.206.
With GCATAAGA the “PBM E-score” value was 0.108.
In the case of CTCTGGAC, the “PBM E-score” value is reported as 0.0228.
For CTCGGCTA, the “PBM E-score” value was 0.0462.
With ATAGTACC the “PBM E-score” value was 0.0266.
AGACTCGA was tested, and the “PBM E-score” value was -0.163.
For ATTTGGCG, the “PBM E-score” value was 0.098.
For GGTACCAC, the “PBM E-score” value was -0.125.
For ACTGTCCT, the “PBM E-score” value was 0.09.
AATTTCGG was tested, and the “PBM E-score” value was 0.0189.
For AAATTTTG, the “PBM E-score” value was -0.00931.
With AGCACTGC the “PBM E-score” value was -0.0698.
With AAGTCAGC the “PBM E-score” value was 0.244.
With ATTGCCAG the “PBM E-score” value was 0.0108.
With AATACCAC the “PBM E-score” value was -0.0105.
GAACTATC was tested, and the “PBM E-score” value was -0.147.
For CAGAACCG, the “PBM E-score” value was 0.0261.
CTAATCCA was tested, and the “PBM E-score” value was 0.131.
In the case of CAACAAAC, the “PBM E-score” value is reported as 0.0451.
GTGCACAC was tested, and the “PBM E-score” value was -0.0677.
In the case of TAGCCCAA, the “PBM E-score” value is reported as -0.0331.
With ACACTCTG the “PBM E-score” value was -0.0387.
ACTCTGCG was tested, and the “PBM E-score” value was 0.0388.
CCGCCACC was tested, and the “PBM E-score” value was -0.144.
In the case of ATAGCGCG, the “PBM E-score” value is reported as 0.175.
In the case of AGGCTACG, the “PBM E-score” value is reported as -0.271.
In the case of AGTTTTAA, the “PBM E-score” value is reported as 0.0556.
GTAAAAAC was tested, and the “PBM E-score” value was 0.161.
For GCTCCCTA, the “PBM E-score” value was -0.331.
In the case of CCTAAACG, the “PBM E-score” value is reported as -0.14.
In the case of GCTCGGAA, the “PBM E-score” value is reported as -0.1.
With ACCGAACG the “PBM E-score” value was 0.122.
With GCGCGAAA the “PBM E-score” value was 0.308.
AGCTGTGG was tested, and the “PBM E-score” value was -0.117.
For AATGTAGG, the “PBM E-score” value was -0.241.
